Results reported in paper PMC11467795.
These are yes or no findings as the source states them, for the method shown. Binding seen in cells or lysates may run through a third protein. Some binding calls cover weakened binding; strength is not graded here.

The chains behind the UniProt entries cited, without tags or fusion partners.
UniProt Q8IZL8: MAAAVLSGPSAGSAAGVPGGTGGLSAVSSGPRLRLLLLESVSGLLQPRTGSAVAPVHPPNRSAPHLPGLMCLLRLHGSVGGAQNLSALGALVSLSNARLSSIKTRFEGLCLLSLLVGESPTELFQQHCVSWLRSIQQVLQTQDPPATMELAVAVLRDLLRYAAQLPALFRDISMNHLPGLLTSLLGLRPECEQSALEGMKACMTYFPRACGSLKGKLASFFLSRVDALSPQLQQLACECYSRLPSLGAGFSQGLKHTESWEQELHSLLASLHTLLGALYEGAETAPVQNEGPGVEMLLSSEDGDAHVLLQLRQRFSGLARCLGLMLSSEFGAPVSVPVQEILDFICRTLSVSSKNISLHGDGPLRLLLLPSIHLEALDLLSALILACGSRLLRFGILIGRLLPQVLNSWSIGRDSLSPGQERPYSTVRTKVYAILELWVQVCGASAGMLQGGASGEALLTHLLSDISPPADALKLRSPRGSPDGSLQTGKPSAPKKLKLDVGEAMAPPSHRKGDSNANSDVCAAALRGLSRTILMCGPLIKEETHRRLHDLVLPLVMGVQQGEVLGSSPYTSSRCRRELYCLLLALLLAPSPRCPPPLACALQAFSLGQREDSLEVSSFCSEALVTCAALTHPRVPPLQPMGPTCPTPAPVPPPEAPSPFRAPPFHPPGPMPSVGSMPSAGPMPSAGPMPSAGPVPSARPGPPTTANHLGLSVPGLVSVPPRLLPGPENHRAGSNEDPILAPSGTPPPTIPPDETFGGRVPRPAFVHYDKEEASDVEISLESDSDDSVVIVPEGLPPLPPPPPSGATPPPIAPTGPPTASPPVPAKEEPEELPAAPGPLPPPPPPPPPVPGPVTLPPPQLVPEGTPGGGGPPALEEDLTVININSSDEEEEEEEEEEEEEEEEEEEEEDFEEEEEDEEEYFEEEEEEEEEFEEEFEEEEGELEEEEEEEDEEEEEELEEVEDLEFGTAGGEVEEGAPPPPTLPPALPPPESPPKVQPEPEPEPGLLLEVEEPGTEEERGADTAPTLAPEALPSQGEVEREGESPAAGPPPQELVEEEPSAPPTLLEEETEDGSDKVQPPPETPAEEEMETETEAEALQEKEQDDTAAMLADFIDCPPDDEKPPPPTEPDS
UniProt Q9H4L4: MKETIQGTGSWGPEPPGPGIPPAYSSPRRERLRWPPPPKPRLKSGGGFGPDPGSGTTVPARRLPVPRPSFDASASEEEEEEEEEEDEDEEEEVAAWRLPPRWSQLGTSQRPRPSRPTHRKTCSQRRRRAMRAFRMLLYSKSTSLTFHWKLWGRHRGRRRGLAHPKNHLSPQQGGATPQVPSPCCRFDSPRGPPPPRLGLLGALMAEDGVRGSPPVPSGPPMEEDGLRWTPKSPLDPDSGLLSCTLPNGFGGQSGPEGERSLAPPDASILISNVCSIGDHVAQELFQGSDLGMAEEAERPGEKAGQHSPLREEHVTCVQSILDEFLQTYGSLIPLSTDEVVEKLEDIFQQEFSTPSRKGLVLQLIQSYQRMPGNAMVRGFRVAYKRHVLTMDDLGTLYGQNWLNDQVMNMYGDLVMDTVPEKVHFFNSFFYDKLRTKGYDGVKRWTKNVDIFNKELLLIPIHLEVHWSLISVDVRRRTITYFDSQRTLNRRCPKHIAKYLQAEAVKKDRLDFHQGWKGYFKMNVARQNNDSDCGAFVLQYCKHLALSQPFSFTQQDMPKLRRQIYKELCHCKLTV

B1: WDR18 (protein, UniProt Q9BV38 1-432)
chain: MAAPMEVAVCTDSAAPMWSCIVWELHSGANLLTYRGGQAGPRGLALLNGEYLLAAQLGKNYISAWELQRKDQLQQKIMCPGPVTCLTASPNGLYVLAGVAESIHLWEVSTGNLLVILSRHYQDVSCLQFTGDSSHFISGGKDCLVLVWSLCSVLQADPSRIPAPRHVWSHHALPITDLHCGFGGPLARVATSSLDQTVKLWEVSSGELLLSVLFDVSIMAVTMDLAEHHMFCGGSEGSIFQVDLFTWPGQRERSFHPEQDAGKVFKGHRNQVTCLSVSTDGSVLLSGSHDETVRLWDVQSKQCIRTVALKGPVTNAAILLAPVSMLSSDFRPSLPLPHFNKHLLGAEHGDEPRHGGLTLRLGLHQQGSEPSYLDRTEQLQAVLCSTMEKSVLGGQDQLRVRVTELEDEVRNLRKINRDLFDFSTRFITRPAK
B2: TEX10 (protein, UniProt Q9NXF1 1-929)
chain: MTKKRKRQHDFQKVKLKVGKKKPKLQNATPTNFKTKTIHLPEQLKEDGTLPTNNRKLNIKDLLSQMHHYNAGVKQSALLGLKDLLSQYPFIIDAHLSNILSEVTAVFTDKDANVRLAAVQLLQFLAPKIRAEQISPFFPLVSAHLSSAMTHITEGIQEDSLKVLDILLEQYPALITGRSSILLKNFVELISHQQLSKGLINRDRSQSWILSVNPNRRLTSQQWRLKVLVRLSKFLQALADGSSRLRESEGLQEQKENPHATSNSIFINWKEHANDQQHIQVYENGGSQPNVSSQFRLRYLVGGLSGVDEGLSSTENLKGFIEIIIPLLIECWVEAVPPQLATPVGNGIEREPLQVMQQVLNIISLLWKLSKQQDETHKLESWLRKNYLIDFKHHFMSRFPYVLKEITKHKRKEPNKSIKHCTVLSNNIDHLLLNLTLSDIMVSLANASTLQKDCSWIEMIRKFVTETLEDGSRLNSKQLNRLLGVSWRLMQIQPNREDTETLIKAVYTLYQQRGLILPVRTLLLKFFSKIYQTEELRSCRFRYRSKVLSRWLAGLPLQLAHLGSRNPELSTQLIDIIHTAAARANKELLKSLQATALRIYDPQEGAVVVLPADSQQRLVQLVYFLPSLPADLLSRLSRCCIMGRLSSSLAAMLIGILHMRSSFSGWKYSAKDWLMSDVDYFSFLFSTLTGFSKEELTWLQSLRGVPHVIQTQLSPVLLYLTDLDQFLHHWDVTEAVFHSLLVIPARSQNFDILQSAISKHLVGLTVIPDSTAGCVFGVICKLLDHTCVVSETLLPFLASCCYSLLYFLLTIEKGEAEHLRKRDKLWGVCVSILALLPRVLRLMLQSLRVNRVGPEELPVVGQLLRLLLQHAPLRTHMLTNAILVQQIIKNITTLKSGSVQEQWLTDLHYCFNVYITGHPQGPSALATVY

Each molecule was assayed against PELP1-GFP (proline-, glutamic acid-, and leucine-rich protein 1 fused to GFP) (UniProt Q8IZL8) (assay: co-IP; PELP1-GFP precipitated with GFP-Trap beads (6 h) from RL95-2-PELP1-GFP and HEK293T-PELP1-GFP cells treated with vehicle or SMIP34 (15 uM, 6 h); high salt lysis buffer (500 mM NaCl, 50 mM HEPES pH 7.5, 5 mM MgCl2, 5% glycerol, 0.5% NP-40, Benzonase); partners detected by Western blotting).

binding, binds:
SENP3 (from UniProt Q9H4L4 1-574)
B1
B2
